{"source": "PubChem BioAssay AID1259425 (University of Nebraska Medical Center, 2018)", "screen": "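Compare each knockdown with KSR1 silencing using changes in marker transcripts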 (primary screen)", "cell system": "HCT116 human colon cancer cells", "knock-down reagent": "siRNA pool against human genes, 50 nM siRNA", "detection": "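mRNA of six signature genes measured together by branched-DNA assay after 50 nM siRNA pool, blank removed, divided by geometric mean of two housekeeping genes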", "scale": "BNIP3L mRNA: higher = more BNIP3L transcript after knockdown", "note": "The whole screen tested about 14,000 reagents; below is an unselected part. The numbers tell different reagents against one gene apart. Not all columns of the deposit are shown. Reagent sequences are not shown. Not given: the time to read-out."}
The first 2 entries as a preview:
{"gene knocked down": "MYH14 (myosin heavy chain 14)", "reagent": 1, "BNIP3L mRNA, set 1": 0.274}
{"gene knocked down": "ACVR2A (activin A receptor type 2A)", "reagent": 1, "BNIP3L mRNA, set 1": 0.0883}

Main list, repeating the preview:
{"gene knocked down": "MYH14 (myosin heavy chain 14)", "reagent": 1, "BNIP3L mRNA, set 1": 0.274}
{"gene knocked down": "ACVR2A (activin A receptor type 2A)", "reagent": 1, "BNIP3L mRNA, set 1": 0.0883}
{"gene knocked down": "SUPT6H", "reagent": 1, "BNIP3L mRNA, set 1": 0.165}
{"gene knocked down": "IFT57 (intraflagellar transport 57)", "reagent": 1, "BNIP3L mRNA, set 1": 0.0482}
{"gene knocked down": "TPSAB1 (tryptase alpha/beta 1)", "reagent": 1, "BNIP3L mRNA, set 1": 0.185}
{"gene knocked down": "TPSAB1 (tryptase alpha/beta 1)", "reagent": 2, "BNIP3L mRNA, set 1": 0.1}
{"gene knocked down": "APOC3 (apolipoprotein C3)", "reagent": 1, "BNIP3L mRNA, set 1": 0.138}
{"gene knocked down": "WLS (Wnt ligand secretion mediator)", "reagent": 1, "BNIP3L mRNA, set 1": 0.135}
{"gene knocked down": "CXADR (CXADR cell adhesion molecule)", "reagent": 1, "BNIP3L mRNA, set 1": 0.0815}
{"gene knocked down": "ZNF771 (zinc finger protein 771)", "reagent": 1, "BNIP3L mRNA, set 1": 0.208}
{"gene knocked down": "STYK1 (STY kinase 1)", "reagent": 1, "BNIP3L mRNA, set 1": 0.0789}
{"gene knocked down": "DDX19B (DEAD-box helicase 19B)", "reagent": 1, "BNIP3L mRNA, set 1": 0.0806}
{"gene knocked down": "SLC4A2", "reagent": 1, "BNIP3L mRNA, set 1": 0.186}
{"gene knocked down": "MARK3 (microtubule affinity regulating kinase 3)", "reagent": 1, "BNIP3L mRNA, set 1": 0.138}
{"gene knocked down": "ABRACL (ABRA C-terminal like)", "reagent": 1, "BNIP3L mRNA, set 1": 0.103}
{"gene knocked down": "OSBP (oxysterol binding protein)", "reagent": 1, "BNIP3L mRNA, set 1": 0.1}
{"gene knocked down": "GP5 (glycoprotein V platelet)", "reagent": 1, "BNIP3L mRNA, set 1": 0.162}
{"gene knocked down": "BMP3 (bone morphogenetic protein 3)", "reagent": 1, "BNIP3L mRNA, set 1": 0.0413}
{"gene knocked down": "ZNF174 (zinc finger protein 174)", "reagent": 1, "BNIP3L mRNA, set 1": 0.0699}
